The experiment addresses T1, full-length catalytic domain of human N-myristoyltransferase 1 (hNMT1s) (human) (UniProt P30419).
T1 sequence: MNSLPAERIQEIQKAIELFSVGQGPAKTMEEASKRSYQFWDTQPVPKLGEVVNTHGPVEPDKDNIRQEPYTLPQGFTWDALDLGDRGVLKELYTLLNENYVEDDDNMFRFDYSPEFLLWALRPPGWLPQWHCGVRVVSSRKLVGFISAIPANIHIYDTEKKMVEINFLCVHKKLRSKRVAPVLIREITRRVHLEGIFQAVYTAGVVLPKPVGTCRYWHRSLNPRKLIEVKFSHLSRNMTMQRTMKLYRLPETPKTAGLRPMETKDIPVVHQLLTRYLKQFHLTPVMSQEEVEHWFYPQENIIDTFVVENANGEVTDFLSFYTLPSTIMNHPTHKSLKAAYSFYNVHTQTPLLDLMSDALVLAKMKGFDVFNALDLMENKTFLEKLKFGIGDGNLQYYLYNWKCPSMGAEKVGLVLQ
The experiment is described as follows: SEC; Superdex 75 gel filtration, 50 mM sodium phosphate pH 7.2, 150 mM NaCl, 1 mM EGTA, 1 mM EDTA; elution compared with ovalbumin (43.0 kDa); both purified. A general note: SEC sorts molecules by how far they enter the pores of the column.

Results are given in words; binding and its absence hold for the method and conditions named.

B1: full-length catalytic domain of human N-myristoyltransferase 1 (hNMT1s) (domain or fragment, UniProt P30419 81-496)
chain: T1 sequence
With B1, the binding result was “no binding”.

Source of the values: paper PMC4441422.
